Measurements reported in PubChem BioAssay AID602196 (INSERM, 2012)

Aim: 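Genes whose knock-down alters cisplatin killing of lung cancer cells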
Cells: human A549 lung cancer cells
Reagent: siRNA pair against human genes
Timing: 48 h transfection before cisplatin; time from cisplatin to read-out not stated
Challenge: cisplatin at a dose killing half of control-siRNA cells; exact dose and duration not given
Read-out: 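Shift in cisplatin death relative to control siRNA, from -50 (all cells die) to +50 (no cells die); siRNAs harmful on their own scored 0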
Reading the numbers: two-siRNA summed score (-2 to +2): higher = both siRNAs protect from cisplatin killing; -2 means both sensitise; mean protection from cisplatin (shift in death) and protection from cisplatin (shift in death), siRNA C and protection from cisplatin (shift in death), siRNA D: higher = protection from cisplatin killing
Rule for the call: 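siRNAs harmful alone (LDH or WST-1) get 0; others get +1 for less and -1 for more cisplatin killing; genes are active when the two siRNAs give the same sign, summing to ±2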
Calls: active = both siRNAs shift cisplatin killing the same way; inactive = no consistent shift, or siRNA harmful alone
In all, the deposit lists about 23,000 reagents; this is a part drawn at random. 455 of them (2%) count as active. 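Active includes both protection and sensitisation; some change values fall well beyond the stated -50 to +50 range.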 Reagent sequences are not shown. The record does not give: the amount of reagent.

no.	gene	two-siRNA summed score (-2 to +2)	mean protection from cisplatin (shift in death) (%)	protection from cisplatin (shift in death), siRNA C (%)	protection from cisplatin (shift in death), siRNA D (%)	Outcome
1	RCC1L	-1	-9	2.4	-20.4	inactive
2	LOC441028	1	15.2	27.9	2.6	inactive
3	ZNF660	1	17.5	7.4	27.6	inactive
4	KIFC3	-1	-14	1.6	-29.7	inactive
5	TMEM181	0	-0.3	-8.7	8	inactive
6	TGFBR3	0	-0.5	-8.1	7.1	inactive
7	TMEM198	0	5	-4.3	14.2	inactive
8	LOC389386	0	-1.6	-7	3.8	inactive
9	PHF6	2	26.4	21	31.8	active
10	LOC387683	1	14.9	0.3	29.6	inactive
11	LOC441847	0	-1.3	3.8	-6.4	inactive
12	SYPL1	-1	-7.1	-0.3	-13.9	inactive
13	LOC400660	1	7.9	-2.3	18.2	inactive
14	SESN2	0	-0.7	-4.9	3.5	inactive
15	FAM180A	0	-3.3	1.2	-7.9	inactive
16	LOC391491	0	6.5	22.6	-9.6	inactive
17	PAGE4	0	1.5	-2.8	5.8	inactive
18	CYP46A1	0	-8.1	-9.5	-6.7	inactive
19	LOC400741	0	-10.5	-24	2.9	inactive
20	CXCR5	0	5.8	12.5	-0.8	inactive
21	LOC440610	0	7.7	7.2	8.1	inactive
22	LRWD1	0	-3.5	24.4	-31.4	inactive
23	TTC12	0	12.8	21.4	4.1	inactive
24	MXD3	0	-1.9	-3.5	-0.4	inactive
25	DAAM2	0	2.9	8.6	-2.9	inactive

Next part (3 carried over from the part before).
no.	gene	two-siRNA summed score (-2 to +2)	mean protection from cisplatin (shift in death) (%)	protection from cisplatin (shift in death), siRNA C (%)	protection from cisplatin (shift in death), siRNA D (%)	Outcome
23	TTC12	0	12.8	21.4	4.1	inactive
24	MXD3	0	-1.9	-3.5	-0.4	inactive
25	DAAM2	0	2.9	8.6	-2.9	inactive
26	PGCKA1	-1	-4.1	2.5	-10.6	inactive
27	HINFP	0	10.1	9.5	10.6	inactive
28	CHI3L2	0	1.6	1	2.2	inactive
29	TAAR5	0	5.1	11.7	-1.5	inactive
30	ING1	0	-4	-12.5	4.5	inactive
31	ACP2	1	5.5	10.4	0.7	inactive
32	LOC388927	0	15.9	26.5	5.2	inactive
33	PHF21B	0	-1.7	12.2	-15.6	inactive
34	PYHIN1	1	8.4	5.3	11.6	inactive
35	UAP1	1	9.8	16.8	2.8	inactive
36	SLCO1C1	0	5.5	9.4	1.6	inactive
37	LOC400745	1	14.2	24.7	3.7	inactive
38	RBM12B	1	17	17.6	16.5	inactive
39	OR1L6	0	5.7	7.4	4	inactive
40	LINC03106	1	2.8	-6.2	11.8	inactive
41	UBE2D1	0	14	10.2	17.7	inactive
42	ANAPC7	0	-10.8	10.2	-31.7	inactive
43	NMUR2	0	10	4.2	15.8	inactive
44	ZNF157	0	6.1	9.1	3.2	inactive
45	PSMB1	1	21.5	25.4	17.5	inactive
46	LOC123855	0	7.1	6.2	8	inactive
47	PPM1D	1	15.4	15.1	15.8	inactive
48	COL9A1	-1	-11.3	-0.8	-21.7	inactive
49	TAFA4	0	8.2	6.9	9.5	inactive
50	BHLHE41	0	0.4	-0.9	1.7	inactive
51	FRAT1	0	5.2	9.4	1	inactive
52	MGC45731	0	5.4	6.9	3.9	inactive
53	RYR1	0	7.8	2.5	13.1	inactive
54	TAFA3	0	14.5	1.5	27.5	inactive
55	CELF6	0	-8.7	-14.4	-3	inactive
56	DCBLD1	0	11.2	14.8	7.6	inactive
57	LOC56930	0	11.3	37.4	-14.8	inactive
58	SSRP1	1	3.3	-5.3	11.9	inactive
59	SERAC1	1	12.3	-0.2	24.9	inactive
60	PLA2G3	0	17.7	13.1	22.3	inactive
61	RHOV	0	-16.1	-16.7	-15.5	inactive
62	LOC442670	1	16	20.8	11.3	inactive
63	OLFML2B	0	10.1	-4.1	24.4	inactive
64	ECPAS	0	9.6	20	-0.7	inactive
65	STAP1	0	-8.4	-0.2	-16.5	inactive
66	COL24A1	0	5.2	5.4	4.9	inactive
67	GRB2	-1	-15	7.6	-37.6	inactive
68	LOC219854	1	11.9	7.7	16.2	inactive
69	SIGLEC9	-1	-9.6	-29.3	10	inactive
70	GPR52	1	19	6.8	31.2	inactive
71	CFAP44	0	-4.9	-9.2	-0.6	inactive
72	RAPGEF4	1	3.2	8	-1.7	inactive
73	NUDCD2	1	10.3	18	2.6	inactive
